Experimental data reported in PubChem BioAssay AID1347423 (Functional Genomics Laboratory (NCATS/FGL), 2020).
The campaign covered roughly 52,000 sequences. About 210 (0.4%) were called active.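 Rule for the calls: active = gene whose silencing raises cell survival under the drug, median off-target-corrected z-score across its silencing RNAs 2 or more; inactive = the rest.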 Some of the results follow.

Assay: Resistance to Poly (ADP-Ribose) Polymerase inhibitor: Gene Identification via Genome-wide siRNA Screen
Conditions: mouse BRCA2 R2336H ES cells, olaparib, CellTiter-Glo viability; stronger effect = higher value
Summary of the method: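 Mouse BRCA2 R2336H ES cells were reverse-transfected with siRNA (20 nM final), treated at 48 h with 500 nM olaparib, and read by CellTiter-Glo after 72 h. Scores: MAD-based z per siRNA, median per gene, seed off-target correction.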
In the case of GGGCCAAAUAUCAUAAACUTT against Strn4, the z-score is reported as inactive: 0.161.
For “GGAAGGAAGAGAAAAACAATT against D11Ertd730e”, the z-score was inactive: -1.34.
In the case of “GGCUAAUACAUAAAGUAGUTT against 4930515G01Rik”, the z-score is reported as inactive: -0.125.
With “CGAAUAUGGUAUUCACUCATT against 9530098N22Rik” the z-score was inactive: 0.473.
For CGUGAACAGGUGGUUGGACTT against Hspa14, the z-score was inactive: -0.293.
For “GCUAAAUUCAGCUGAGGCUTT against 4932416A15”, the z-score was inactive: -0.804.
With GGAUGGAAUGCAGAAACGATT against Pcp2 the z-score was inactive: -0.704.
With GCCCUGGCAUGCUAACAAATT against Prpf3 the z-score was inactive: -1.46.
For GCCCGAGGUCAUCCUUUUATT against Cbx4, the z-score was inactive: 0.496.
In the case of “GGAAAAACAACCAGAUUGATT against 2810439F02Rik”, the z-score is reported as inactive: -0.0652.
With CCCAAAGCCCUUUUAAACUTT against Hmbs the z-score was inactive: 1.08.
With GCCUAAACUACCCUUAUAGTT against Ocln the z-score was inactive: -0.892.
With “GCCAAAAUAAUCCUUGGGATT against 1600015I10Rik” the z-score was inactive: -0.983.
For GCGGUUCACUAUCUCCCUATT against Khsrp, the z-score was inactive: -1.63.
With GGAGAUCGACCACUUCUUCTT against Olfr1395 the z-score was inactive: 0.6.
In the case of GGAGAAUCAGGGUAGCACATT against D18Wsu98e, the z-score is reported as inactive: 1.34.
In the case of GGUACAAAAGAAAACUGCUTT against Slbp, the z-score is reported as inactive: -0.455.
For CCCUAACCUCAUUUCAUGUTT against V1rd1, the z-score was inactive: -0.398.
For GGCCGUGUGUUUCUGUAACTT against Matk, the z-score was inactive: -0.417.
In the case of GCAUUCAAAAUAGCUCUAUTT against Calb1, the z-score is reported as inactive: 0.738.
With GCCUAUUCGAAUUUGGGAATT against Ogt the z-score was inactive: -1.86.
For “UGCUGUUAUCUGCUUACAGTT against 1110002E23Rik”, the z-score was inactive: 1.26.
In the case of GGGCACUGAGUCUCCAAAATT against Rhbdl6, the z-score is reported as inactive: -1.39.
For GCAUGUUUAGAACUCGCUCTT against Zfp87, the z-score was inactive: 1.4.
For GGGAGAGAUGUGGAAAUCUTT against Rac2, the z-score was inactive: 1.43.
For GCAAGUGGUAAUGGUGACCTT against Tex15, the z-score was inactive: -0.249.
With “GGACCCAAGAAGAUGACGUTT against 0610010K14Rik” the z-score was inactive: 1.44.
In the case of GGUGGGCACACUUAGGUUUTT against BC030183, the z-score is reported as inactive: -0.339.
With GGACAUUAGGAUCAGAACCTT against MGC73851 the z-score was inactive: -1.39.
With GGGAUUGUAACAGCAUCCCTT against Epha6 the z-score was inactive: 0.0863.
For GGUUUGUAAAGGUUAUGACTT against Nell2, the z-score was inactive: 0.267.
For CGAAGAGAUCAGUAAUAUGTT against Kif21a, the z-score was inactive: -0.489.
For GGCUAAAGGCCUUCUUUUUTT against D10Ucla1, the z-score was inactive: 0.394.
With CGAGUGAGUGACGGCUACATT against Sema3e the z-score was inactive: -0.942.
For GCAGCUCUGCGGAAGCUUUTT against Olfr1350, the z-score was inactive: 1.34.
In the case of GCUUUUACAAGACCUGUUCTT against Pde2a, the z-score is reported as active: 1.02.
With GGAGAGAAAAAGGACUCAGTT against Kcnd2 the z-score was inactive: -2.21.
In the case of CGUGGUGAACGAGAUUGAUTT against Kcnab1, the z-score is reported as inactive: 0.257.
With GAGUGUCUUGAACACAGCCTT against Olfr635 the z-score was inactive: -0.396.
For GGUCAAGUCAAGAGUGAGATT against LOC434439, the z-score was inactive: 0.0853.
With “GGUAUAUCGCCUAAUCACUTT against 5430439G14Rik” the z-score was inactive: 0.398.
In the case of GGAGCUAGCAAGUAAAACUTT against Lbx2h, the z-score is reported as inactive: 0.447.
For GCAACUGAGAGAUGUCAUCTT against AI595338, the z-score was inactive: 0.706.
For “GGUACUGUUUGCAUUUAUUTT against C730042F17Rik”, the z-score was inactive: 0.404.
With GCUCCUAGAUUGCACCUACTT against Sez6l2 the z-score was inactive: 0.158.
With GGUAUCGAAGAACUGGAAATT against Spg4 the z-score was inactive: 0.837.
For GCAAAAAUUAUGCAGAGCATT against Olfr1443, the z-score was inactive: 2.55.
In the case of GGAUGGAGUGCCCUCAAGUTT against Pdk2, the z-score is reported as inactive: -1.25.
For GCUUUGUUUAUUUAGCCAGTT against Olfr154, the z-score was inactive: -0.0717.
With GGCGGAGUUUUUAAUACUCTT against Upb1 the z-score was inactive: -0.0292.
In the case of GGAAUGAUCAUUCUAAUCCTT against Olfr1497, the z-score is reported as inactive: 1.62.
For GGAACGUGUUCAAAAGAGUTT against Sos1, the z-score was inactive: 0.513.
